Data on 1 substance can be found in article PMC10700596 (Nature Communications, 2023).

Sequences of proteins named here, by UniProt entry; tags and fusion partners are left off.
UniProt P35408: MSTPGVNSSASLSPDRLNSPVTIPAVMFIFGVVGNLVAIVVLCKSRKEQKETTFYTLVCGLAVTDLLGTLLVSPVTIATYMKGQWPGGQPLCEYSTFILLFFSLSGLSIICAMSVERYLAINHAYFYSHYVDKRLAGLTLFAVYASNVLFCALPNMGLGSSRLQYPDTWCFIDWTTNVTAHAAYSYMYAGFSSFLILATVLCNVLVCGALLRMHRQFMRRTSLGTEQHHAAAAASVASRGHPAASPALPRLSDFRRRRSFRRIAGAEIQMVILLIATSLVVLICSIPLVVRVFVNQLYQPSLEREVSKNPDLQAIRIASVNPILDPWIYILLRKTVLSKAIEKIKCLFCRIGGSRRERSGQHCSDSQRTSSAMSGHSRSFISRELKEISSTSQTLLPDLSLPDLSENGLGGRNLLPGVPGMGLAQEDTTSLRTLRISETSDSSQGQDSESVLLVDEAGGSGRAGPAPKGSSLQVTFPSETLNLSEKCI
UniProt P32121: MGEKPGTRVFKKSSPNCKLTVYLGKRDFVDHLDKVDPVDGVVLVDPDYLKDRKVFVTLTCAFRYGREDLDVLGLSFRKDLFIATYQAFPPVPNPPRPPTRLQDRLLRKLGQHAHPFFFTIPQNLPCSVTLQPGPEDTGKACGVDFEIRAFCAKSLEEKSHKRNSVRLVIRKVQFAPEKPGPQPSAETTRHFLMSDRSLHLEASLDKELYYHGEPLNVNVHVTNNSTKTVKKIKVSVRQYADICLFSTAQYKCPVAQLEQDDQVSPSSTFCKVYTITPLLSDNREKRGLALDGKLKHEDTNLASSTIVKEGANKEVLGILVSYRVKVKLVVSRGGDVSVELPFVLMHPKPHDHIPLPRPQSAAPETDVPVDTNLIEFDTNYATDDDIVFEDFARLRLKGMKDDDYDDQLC

This assay concerns the target wild-type EP4R attached to Renilla luciferase (UniProt P35408). Description: FRET or BRET; HEK cells transfected with EP4R-RLuc and mVenus-β-arrestin2 at 1:6; PGE2 at its EC80 (8 nM), 5 µM coelenterazine h, at least 25 min incubation; assay buffer 20 mM HEPES, 1x Hank's balanced salt solution, pH 7.4; emission at 485 nm and 530 nm.

No constants are given. Whether binding was seen depends on the method and setting. Binding seen in cells or lysates may run through a third protein. Some entries that bind do so weakly or less than the wild type.

In the case of “mVenus N-terminally modified human β-arrestin2 (from UniProt P32121 1-409)”, the binding entry was “binds”.
